{"source": "patent US20240212786A1", "about": "“METHOD OF DISCOVERING NOVEL ANTICANCER DRUG USING CO-ESSENTIALITY NETWORK, AND AN APPARATUS THEREOF” (POSTECH RESEARCH AND BUSINESS DEVELOPMENT FOUNDATION, priority 2022, published 2024)", "test_system": "four LIHC cell lines (SNU398, SK-HEP-1, Huh7, HepG2)", "assay": "Prolonged colony formation assay", "assay_type": "cell-based, human", "conditions": "seven days, crystal violet staining", "note": "Where a name gives a salt, the structure may show the parent alone. At least one structure is not confirmed: it was looked up by name or label, or the drawing left a doubt."}
{"smiles": "CC(C)C[C@H](NC(=O)CNC(=O)c1cc(Cl)ccc1Cl)B1OC(=O)C(CC(=O)O)(CC(=O)O)O1", "note": "[ixazomib citrate]", "values": [{"measurement": "colony formation (colony number and colony size)", "result": "significantly impaired the growth"}]}
